Results on 1 substance are retold here after PMC11912016.

Protein sequences, listed by entry. Tags and fused reporters are not part of them.
UniProt P43006: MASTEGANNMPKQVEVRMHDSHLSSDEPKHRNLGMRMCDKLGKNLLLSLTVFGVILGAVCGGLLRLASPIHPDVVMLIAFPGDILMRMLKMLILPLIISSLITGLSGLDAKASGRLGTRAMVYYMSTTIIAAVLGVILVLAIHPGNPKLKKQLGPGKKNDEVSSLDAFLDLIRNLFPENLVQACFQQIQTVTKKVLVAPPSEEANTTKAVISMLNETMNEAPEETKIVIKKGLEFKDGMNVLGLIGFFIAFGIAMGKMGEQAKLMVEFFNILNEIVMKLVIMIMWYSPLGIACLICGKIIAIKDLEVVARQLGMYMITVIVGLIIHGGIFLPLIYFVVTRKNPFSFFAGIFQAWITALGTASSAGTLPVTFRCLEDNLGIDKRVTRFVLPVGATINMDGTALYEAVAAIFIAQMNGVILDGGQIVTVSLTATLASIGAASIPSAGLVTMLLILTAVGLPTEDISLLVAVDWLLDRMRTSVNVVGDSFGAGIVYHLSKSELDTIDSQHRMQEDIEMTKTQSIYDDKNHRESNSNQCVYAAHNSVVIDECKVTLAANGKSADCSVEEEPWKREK

The experiment addresses T1, Crystallin alpha B (CRYAB) (mouse (endogenous in NAcc)) (UniProt P23927).
T1 sequence: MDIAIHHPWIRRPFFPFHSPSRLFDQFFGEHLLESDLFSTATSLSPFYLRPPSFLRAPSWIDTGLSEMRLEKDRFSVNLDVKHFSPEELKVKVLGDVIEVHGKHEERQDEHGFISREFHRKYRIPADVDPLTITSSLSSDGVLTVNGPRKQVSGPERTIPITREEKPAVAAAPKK
Put plainly: co-IP; NAcc samples of cocaine-treated (10 mg/kg) mice, CRYAB antibody overnight at 4°C, protein A/G beads, eluate blotted with EAAT2 antibody.

Results are given in words; binding and its absence hold for the method and conditions named. In cells and extracts the contact can be indirect. Some binding calls cover weakened binding; strength is not graded here.

In the case of “excitatory amino acid transporter 2 (EAAT2) (from UniProt P43006 1-572)”, the binding result is on record as “binds”.
